Data as given in PubChem BioAssay AID686937 (Drosophila RNAi Screening Center, 2013)
The screen tested about 23,000 reagents; this is an unselected part of those that have a named target and a result. 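Reduced-secretion tags in replicate 1 do not always agree with the z-scores; no criterion for assigning the tags was given.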 Names joined by + are all predicted targets of the reagent. Not all columns of the deposit are shown. Not stated in the record: the amount of reagent.

- Purpose: 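Genes whose loss weakens secretory pathway function in fly cells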 (primary screen)
- Cell system: Drosophila S2 cells expressing secreted horseradish peroxidase
- Reagent: long dsRNA against Drosophila genes
- Duration: about 5.5 days (5 days dsRNA, then 12 h reporter induction)
- Treatment: reporter expression induced after 5 days of dsRNA, read 12 h later; inducer not stated
- Detection: 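After 5 days of dsRNA and 12 h of reporter induction, medium peroxidase read by chemiluminescence and scored as per-plate z-score; higher values mean more reporter released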
- Direction: z-score: higher = more reporter secreted into medium

For CG6329 (GeneID 36529) [DRSC06976], the values are z-score, replicate 1 = 0.36.
CG34136 (GeneID 4379892) [DRSC01833] scored z-score, replicate 1 = -0.33.
With knock-down of CG11791 (GeneID 43000) [DRSC14391] the results were z-score, replicate 1 = 0.08.
Silencing of CG32801 (GeneID 31152) [DRSC17964] resulted in: z-score, replicate 1 = 0.16.
Silencing of CG17258 (GeneID 33517) [DRSC00495] came out at: z-score, replicate 1 = 0.75.
CG17258 (GeneID 33517) [DRSC22709] scored z-score, replicate 1 = 0.11.
Against CG13862 (GeneID 42610) [DRSC14712], the values are z-score, replicate 1 = 0.49.
Knock-down of Ccdc58 + CG34116 [DRSC10105] resulted in: z-score, replicate 1 = 0.24.
Against Cyp9f3 (GeneID 3772405) [DRSC16636] the deposit lists z-score, replicate 1 = 0.1.
mod(mdg4) (GeneID 49228) [DRSC13474] gave z-score, replicate 1 = 0.51.
mod(mdg4) (GeneID 49228) [DRSC13475] showed z-score, replicate 1 = 0.58.
After knock-down of mod(mdg4) (GeneID 49228) [DRSC13478], the record shows z-score, replicate 1 = -0.16.
For mod(mdg4) (GeneID 49228) [DRSC13479], the values are z-score, replicate 1 = 0.42.
With knock-down of mod(mdg4) (GeneID 49228) [DRSC15042], the screen gave z-score, replicate 1 = 0.22.
Silencing of mod(mdg4) (GeneID 49228) [DRSC17000] came out at: z-score, replicate 1 = 0.42.
After knock-down of CG7724 (GeneID 39918) [DRSC10905] the results were z-score, replicate 1 = 0.43.

Ordered by “z-score, replicate 1” (descending): some entries from above
CG13862 (GeneID 42610) [DRSC14712] → z-score, replicate 1: 0.49
Ccdc58 + CG34116 [DRSC10105] → z-score, replicate 1: 0.24

Additional records:
With knock-down of kipf (GeneID 40937) [DRSC15446] the results were z-score, replicate 1 = -2.87.
Against kipf (GeneID 40937) [DRSC22871] the deposit lists z-score, replicate 1 = 0.26.
Zasp67 (GeneID 39148) [DRSC10169] scored z-score, replicate 1 = 0.4.
With knock-down of Cep290 (GeneID 38099) [DRSC08359] the results were z-score, replicate 1 = 0.29.
Against Itgbn (GeneID 35368) [DRSC03493], the values are z-score, replicate 1 = 0.59.
With knock-down of CG12885 (GeneID 43308) [DRSC14572], the screen gave z-score, replicate 1 = 0.58.
For CG13024 (GeneID 39880) [DRSC09904], the values are z-score, replicate 1 = 0.26.
PIG-G (GeneID 35685) [DRSC06823] gave z-score, replicate 1 = 0.14.
Prip (GeneID 36237) [DRSC07044] gave z-score, replicate 1 = 0.07.
CG31897 (GeneID 319011) [DRSC01020] scored z-score, replicate 1 = 0.16.
Knock-down of CG9503 (GeneID 32424) [DRSC20186] resulted in: z-score, replicate 1 = 0.2.
With knock-down of CG9503 (GeneID 32424) [DRSC21766] the results were z-score, replicate 1 = -0.41.
